Some of the results follow.
B1: il2ra_site1_2b5i_normal_mot_HHH_b1_03447_af2_000000033_0001_43_57_H_._HHH_b2_06886_af2_0001_0000500027_0000001_0_1_af2pred_dldesign_0_af2pred (protein)
chain: SSSSSEKEAELDELADEAYRLARKGDKERFKEVAEKAKALAKELGDEKTVAELEYLEKKLSSSSS
B2: il2ra_site1_3nfp_normal_mot_HHH_b1_00042_af2_000000196_0001_42_57_H_._HHH_b1_07808_af2_0001_0000500059_0000001_0 (protein)
chain: SSSSDEELRLNRRFQELWKEAKKRNDEELLKELLELLKELAEELNDRVLEWLVRQLEEALNSSSS
B3: il2ra_site2_2erj_sap_23_mot_HHH_b1_06554_000000001_0001_44_57_H_._HHH_b1_06642_0001_0000500013_0000001_0_0001 (protein)
chain: SSSSDAAEHAAEVSVELLRLFKEGNEEELERLLKEAKEFVEERNDEHALKYLEFVEEDLRSSSSS
B4: il2ra_site2_3nfp_normal_mot_HHH_b1_03851_000000147_0001_21_38_H_._HHH_b1_04525_0001_0000600036_0000001_0 (protein)
chain: SSSSDEERREARELFEELQELLEENDKHAVFEVLMELFELAARTGDEEAARLVLEIYAQLRSSSS
B5: il2ra_site2_3nfp_sap_16_mot_HHH_b2_00429_000000100_0001_21_37_H_._ae1c9ea29156517b3605075ffbb42e44_0001_0002_0000200042_0000001_1_0001 (protein)
chain: SSSSSSDEEELAELLEELLERGDEEKLRKVVREAAHLAFEKGDHELFFLAAEALYSLASSSSSSS
B6: il2ra_site2_2erj_normal_mot_HHH_b2_06080_000000063_0001_42_56_H_._HHH_b2_01714_0001_0001400013_0000001_0_af2pred_0001_af2pred (protein)
chain: SSSSDLEEVLRELEEALAEGDEELIRKLFEEVEELAKHVPDEELRSEAERLLLFAELLLRHSSSS
B7: il2ra_site2_2erj_sap_12_mot_HHH_b1_08231_000000052_0001_20_37_H_._HHH_b1_06388_af2_0001_0000300009_0000001_0_0001 (protein)
chain: SSSSDEEEEKLEKFVEELVEKFNLDERTEELLRESLKVALSAGVNPELIQRFLERSAKAQSSSSS
B8: il2ra_site2_3nfp_normal_mot_HHH_b2_08072_af2_000000052_0001_39_54_H_._HHH_b2_06188_0001_0000700030_0000001_0_af2pred_0001_1_af2pred_swapped (protein)
chain: SSSSSSSELEHRAFILALELREEGDEEAAKELLELLYRVLTENDPELERELKELLEELSSSSSSS
B9: il2ra_site2_2erj_normal_mot_HHH_b1_01239_000000175_0001_43_57_H_._HHH_b1_01477_0001_0000100001_0000001_0_1_af2pred_0001_1_af2pred_swapped (protein)
chain: SSSSSDREEVEEEVRELLEEAERIPDLREALKLLQEASQLADEIGDPELFELVLEVLQRLSSSSS
B10: il2ra_site1_1z92_sap_17_mot_8b347a0de1c9f22fb2e23e9a493f891b_0001_000000262_0001_37_51_H_._46d73865503fbedcaf0f3a45445d594c_0001_0001_0000100012_0000001_0_0001_ … (protein)
chain: SSSSNSREILLESAEEMLRLAEEKNDEEALKRLLEQLERFLKFAGDPRVEELIEELRKLLGSSSS
B11: il2ra_site2_3nfp_sap_30_mot_HHH_b1_06577_af2_000000152_0001_20_36_H_._0211eb4cb6cc506d3757c28afaeb928d_0001_0001_0000100024_0000001_0_0001_af2pred_0001_af2pred (protein)
chain: SSSSDLKEKVEKVLEEVEELERRGNPEEARKLLAELADEIYENQDFEAFAILVKFFEERDSSSSS
B12: il2ra_site2_3nfp_sap_24_mot_HHH_b1_00399_af2_000000233_0001_42_56_H_._HHH_b2_05884_0001_0000300011_0000001_0_0001_af2pred_0001_1_af2pred_swapped (protein)
chain: DSLEELAQEAVEEGDPALLDAVAVALALEEAGVPPEEIEKRVKRFLELLGVPPEEIEEILELLKK
B13: il2ra_site2_3nfp_sap_15_mot_HHH_b1_06677_000000199_0001_20_36_H_._254fc17bb08746de5dae9ef87d53b160_0001_0001_0000100001_0000001_0_0001 (protein)
chain: SSSSSDKEEAEERVEELLEEAKHVSPEEQRELLKEASQLAWKVNDFELFAKVNELIAELASSSSS
B14: il2ra_site2_2erj_sap_26_mot_HHH_b1_05386_000000188_0001_22_38_H_._fd0a9d037eb77d912a268a88faf82d0b_0001_0001_0000200003_0000001_0_0001 (protein)
chain: SSSSSEDSVRVWELLKELAEAAERGDEELFEELFEEAEKLAKEGNNPLLERFVKLQYERWSSSSS
B15: il2ra_site2_3nfp_normal_mot_HHH_b1_00660_af2_000000090_0001_40_57_H_._HHH_b1_05943_0001_0000500031_0000001_0_af2pred_0001_af2pred (protein)
chain: SSSSSDEEEEEVEELMEEAKHVPDPEKREELLARARLLAYELKNFELFAKLLEILERLNSSSSSS
B16: il2ra_site2_3nfp_sap_22_mot_HHH_b2_01049_000000044_0001_19_35_H_._HHH_b1_00008_0001_0000100001_0000001_0_0001_af2pred_0001_af2pred (protein)
chain: SSSSEETEEFAREVVERLVEEYKLSEEQQRLLELAAELALEAGADEEYIESWLELLARLLSSSSS
B17: il2ra_site2_2erj_normal_mot_HHH_b1_01555_af2_000000123_0001_22_39_H_._HHH_b1_02219_af2_0001_0000100006_0000001_0 (protein)
chain: SSSSSQREEVLEAARELVEEAEEKGDKELLELLERFVELTLEEVGDPKLEELLEEIRKLLSSSSS
B18: il2ra_site1_3nfp_normal_mot_66bb1f637706d7249e1dd387c51866da_0001_1_000000092_0001_54_65_H_._ce8578411c818e85008b652dcd9ad55d_0001_1_af2_0001_0000300006_0000001 … (protein)
chain: SEEEEAEREAKEKGLVSPKAIKLAKRFIEEAQRQLPPEEALREVLRILRRAGDPEAALFVELVLR
B19: il2ra_site1_3nfp_normal_mot_HHH_b1_05523_000000054_0001_1_19_H_._HHH_b2_04834_af2_0001_0000200024_0000001_0 (protein)
chain: SSSSDEHEELERLLREAFELAKRGDEEEAREVLEEAIKLAEELNSREHLRSLEAAVRLIERSSSS
B20: il2ra_site1_3nfp_sap_24_mot_HHH_b2_06429_af2_000000115_0001_1_18_H_._HHH_b1_08445_af2_0001_0000100015_0000001_0_0001_af2pred_0001_af2pred_swapped (protein)
chain: SSSSDEVRRAQELAKEIQRLLREGDPEEARELLEELRELAKKANSRAAKRYVEELERRINSSSSS
B21: il2ra_site2_3nfp_normal_mot_HHH_b1_05918_af2_000000127_0001_23_40_H_._HHH_b2_01690_0001_0000300022_0000001_0 (protein)
chain: SSSSSELEEYLRAALLLLEEALEEGDEEAFRRHARLIKLLAETANDEEVREEVERLLEEFDSSSS
B22: il2ra_site2_3nfp_normal_mot_HHH_b2_01406_000000272_0001_41_55_H_._HHH_b2_00362_0001_0000600032_0000001_0 (protein)
chain: SSSSSDEEEEELEERLEKALEEGDKHLAAQLAAELSELLARLNDPETAVRLAVKVLEFVLSSSSS
B23: il2ra_site1_3nfp_sap_17_mot_HHH_b1_02637_af2_000000026_0001_1_18_H_._HHH_b1_04098_af2_0001_0000200016_0000001_0_0001 (protein)
chain: NRAKELAREALEKNDPELLREVLEMVREQARLPPEDAVKFVRLQLKWLGILTPELEEILRELLEK
B24: il2ra_site1_2b5i_sap_15_mot_417dcdf3126cc1de7a956bebb2b613e5_0001_1_000000286_0001_54_65_H_._dd49bf3528da6f37616b30d4057d0d98_0001_0001_0000100001_0000001_0_000 … (protein)
chain: SSSSDEKYDEIERLYKEALELWKQGKYEEAKEKLEKAIKLAEEAKDEVLLKDLKTLLERLKSSSS

Target: il2ra, P01589
Experiment: yeast display titration

Apparent Kd, inactive:
B1 no binding seen, B2 no binding seen, B3 no binding seen, B4 no binding seen, B5 no binding seen, B6 no binding seen, B7 no binding seen, B8 no binding seen, B9 no binding seen, B10 no binding seen, B11 no binding seen, B12 no binding seen, B13 no binding seen, B14 no binding seen, B15 no binding seen, B16 no binding seen, B17 no binding seen, B18 no binding seen, B19 no binding seen, B20 no binding seen, B21 no binding seen, B22 no binding seen, B23 no binding seen, B24 no binding seen

Source: publication PMC10163288
